For this experiment, the target named is HA-DOCK2 (UniProt Q92608). As to the kind of experiment: co-IP; HEK293T cell lysates ~48 h post-transfection with HA-DOCK2 and Flag-RASSF2; HA-immunoprecipitation, then immunoblotting. For orientation: In western blotting, separated proteins are transferred to a membrane and probed.

Amino acid sequences for entries named in this document (tags omitted).
UniProt Q92608: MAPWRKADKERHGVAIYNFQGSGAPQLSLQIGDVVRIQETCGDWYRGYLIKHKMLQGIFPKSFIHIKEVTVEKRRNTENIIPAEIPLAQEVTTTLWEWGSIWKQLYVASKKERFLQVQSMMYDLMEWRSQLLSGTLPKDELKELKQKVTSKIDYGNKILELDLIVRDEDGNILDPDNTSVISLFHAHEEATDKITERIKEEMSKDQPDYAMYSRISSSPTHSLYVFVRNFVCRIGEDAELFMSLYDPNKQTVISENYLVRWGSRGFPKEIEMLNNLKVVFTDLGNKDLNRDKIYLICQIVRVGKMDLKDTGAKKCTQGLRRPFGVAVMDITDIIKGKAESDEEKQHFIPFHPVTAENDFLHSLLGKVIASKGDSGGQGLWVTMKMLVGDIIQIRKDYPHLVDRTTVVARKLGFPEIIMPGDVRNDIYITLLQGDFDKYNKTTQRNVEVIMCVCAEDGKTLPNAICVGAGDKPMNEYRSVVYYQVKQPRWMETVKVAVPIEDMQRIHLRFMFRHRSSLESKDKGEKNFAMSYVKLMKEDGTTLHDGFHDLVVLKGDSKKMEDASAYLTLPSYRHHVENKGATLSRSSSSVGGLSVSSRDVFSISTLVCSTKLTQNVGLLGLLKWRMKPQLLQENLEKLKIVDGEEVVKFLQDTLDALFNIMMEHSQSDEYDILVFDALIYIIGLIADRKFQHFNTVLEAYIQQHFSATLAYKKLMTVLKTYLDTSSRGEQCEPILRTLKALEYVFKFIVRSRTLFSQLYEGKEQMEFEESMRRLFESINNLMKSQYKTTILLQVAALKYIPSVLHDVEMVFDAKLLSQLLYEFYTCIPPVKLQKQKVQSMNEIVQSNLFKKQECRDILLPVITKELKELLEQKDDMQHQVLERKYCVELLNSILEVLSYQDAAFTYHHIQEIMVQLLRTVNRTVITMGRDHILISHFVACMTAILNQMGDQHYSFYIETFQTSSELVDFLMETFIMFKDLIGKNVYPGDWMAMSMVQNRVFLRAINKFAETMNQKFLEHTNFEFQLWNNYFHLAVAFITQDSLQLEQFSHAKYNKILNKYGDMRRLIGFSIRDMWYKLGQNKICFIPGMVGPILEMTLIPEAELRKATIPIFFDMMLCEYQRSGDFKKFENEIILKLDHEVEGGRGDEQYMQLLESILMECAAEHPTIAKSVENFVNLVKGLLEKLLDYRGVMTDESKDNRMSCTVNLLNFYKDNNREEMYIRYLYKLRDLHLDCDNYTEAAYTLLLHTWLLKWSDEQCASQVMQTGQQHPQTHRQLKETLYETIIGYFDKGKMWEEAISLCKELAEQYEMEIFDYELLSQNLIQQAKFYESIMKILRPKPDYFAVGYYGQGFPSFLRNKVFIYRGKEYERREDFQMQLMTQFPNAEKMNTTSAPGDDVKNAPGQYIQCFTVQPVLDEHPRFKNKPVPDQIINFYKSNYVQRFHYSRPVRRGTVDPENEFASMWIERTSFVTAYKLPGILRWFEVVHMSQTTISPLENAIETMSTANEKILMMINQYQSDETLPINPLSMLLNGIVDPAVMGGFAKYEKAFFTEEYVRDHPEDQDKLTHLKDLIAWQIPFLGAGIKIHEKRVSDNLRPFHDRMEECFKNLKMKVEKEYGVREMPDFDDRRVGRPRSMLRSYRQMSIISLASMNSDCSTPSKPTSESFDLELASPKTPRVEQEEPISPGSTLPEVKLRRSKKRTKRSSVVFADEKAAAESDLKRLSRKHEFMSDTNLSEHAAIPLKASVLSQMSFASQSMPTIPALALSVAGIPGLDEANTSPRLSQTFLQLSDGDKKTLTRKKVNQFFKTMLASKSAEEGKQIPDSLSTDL

Results are given in words; binding and its absence hold for the method and conditions named. In cells and extracts the contact can be indirect. Some binding calls cover weakened binding; strength is not graded here. Tags and fused reporters may be left off the sequences shown.

B1: Flag-RASSF2 (protein, UniProt P50749 1-326)
chain: MDYSHQTSLVPCGQDKYISKNELLLHLKTYNLYYEGQNLQLRHREEEDEFIVEGLLNISWGLRRPIRLQMQDDNERIRPPPSSSSWHSGCNLGAQGTTLKPLTVPKVQISEVDAPPEGDQMPSSTDSRGLKPLQEDTPQLMRTRSDVGVRRRGNVRTPSDQRRIRRHRFSINGHFYNHKTSVFTPAYGSVTNVRINSTMTTPQVLKLLLNKFKIENSAEEFALYVVHTSGEKQKLKATDYPLIARILQGPCEQISKVFLMEKDQVEEVTYDVAQYIKFEMPVLKSFIQKLQEEEDREVKKLMRKYTVLRLMIRQRLEEIAETPATI
As for B1, the binding result is “binds”.

Source of the values: PMC7005177.
